Assay results as given in the supplement of paper PMC6078165.
The reference is the same well before dosing, and untreated signal decays as well.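 Fibroblast labels name human fibroblasts: mostly primary ones from tissues such as uterus (C12385, HUF), lung (H6013), bone (Hs27A), adrenal (HADF) and skin (WS1), plus mammary HMF and breast cancer-associated Hs343T. The cancer cells are basal-like or mesenchymal-like triple-negative breast cancer lines. The paper calls a changed response a hit when it shifts by more than 3x the replicate standard deviation. The tissue of the other fibroblasts is not given here.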

Tested on: MDAMB468
Assay: relative JC-1 red fluorescence (viability) vs pre-drug, coculture with fibroblast (fraction); higher = more viable cancer cells
Procedure: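 JC-1 labelled TNBC cells cocultured 1:1 (1,500 cells each) with CellTrace Violet stained primary or stromal fibroblasts in 384-well plates in FluoroBrite medium, treated with one of 42 anticancer drugs at 0.1, 1, 10 or 100 uM. JC-1 red fluorescence (mitochondrial integrity in cancer cells only) was read by plate reader every 8 h for 72 h. Values are normalised to each well's pre-drug value. The stock of one drug was tenfold lower, so its dose labels may be too high.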

CO[C@H]1C[C@@H]2CC[C@@H](C)[C@@](O)(O2)C(=O)C(=O)N2CCCC[C@H]2C(=O)O[C@H]([C@H](C)C[C@@H]2CC[C@@H](O)[C@H](OC)C2)CC(=O)[C@H](C)/C=C(\C)[C@@H](O)[C@@H](OC)C(=O)[C@H](C)C[C@H](C)/C=C/C=C/C=C/1C [Rapamycin]
relative JC-1 red fluorescence
Conditions	8 h	16 h	24 h	32 h	40 h	48 h	56 h	64 h	72 h
0.1 µM, coculture fibroblast: C12385	0.859	0.777	0.734	0.684	0.643	0.63	0.604	0.583	0.573
0.1 µM, coculture fibroblast: H6013	0.8388	0.8436	0.80445	0.7983	0.783	0.799	0.785	0.785	0.752
0.1 µM, coculture fibroblast: H6019	0.8343	0.797	0.752	0.704	0.667	0.657	0.619	0.592	0.58
0.1 µM, coculture fibroblast: H6076	0.9194	0.899	0.904	0.881	0.824	0.81	0.772	0.756	0.777
0.1 µM, coculture fibroblast: H6231	0.821	0.864	0.887	0.857	0.814	0.7861	0.7361	0.7087	0.6891
0.1 µM, coculture fibroblast: HADF	0.867	0.8089	0.757	0.7495	0.711	0.721	0.684	0.6822	0.6551
0.1 µM, coculture fibroblast: HCFa	0.821	0.8	0.747	0.73	0.677	0.687	0.64	0.6042	0.5631
0.1 µM, coculture fibroblast: HCPF	0.86	0.9255	0.852	0.8538	0.7872	0.767	0.709	0.698	0.688
0.1 µM, coculture fibroblast: HHSteC	0.873	0.84	0.815	0.792	0.765	0.775	0.725	0.706	0.664
0.1 µM, coculture fibroblast: HMF	0.79698	0.977	0.881	0.838	0.783	0.758	0.708	0.693	0.673
0.1 µM, coculture fibroblast: HPFa	0.925	0.8614	0.8334	0.789	0.773	0.787	0.736	0.723	0.655
0.1 µM, coculture fibroblast: HUF	0.8963	0.818	0.767	0.715	0.677	0.658	0.616	0.602	0.587
0.1 µM, coculture fibroblast: Hs5	0.814	0.961	0.873	0.841	0.781	0.742	0.695	0.659	0.669
0.1 µM, coculture fibroblast: Hs27A	0.844	0.7926	0.733	0.741	0.684	0.692	0.659	0.652	0.624
0.1 µM, coculture fibroblast: Hs343T	0.8712	0.949	0.87	0.8344	0.7662	0.7519	0.7124	0.699	0.679
0.1 µM, coculture fibroblast: WS1	0.8432	0.7775	0.728	0.669	0.618	0.583	0.558	0.535	0.526
1 µM, coculture fibroblast: C12385	0.8725	0.842	0.811	0.771	0.735	0.729	0.697	0.685	0.672
1 µM, coculture fibroblast: H6013	0.875	0.867	0.839	0.851	0.822	0.833	0.813	0.808	0.786
1 µM, coculture fibroblast: H6019	0.877	0.87	0.865	0.829	0.805	0.82	0.799	0.787	0.775
1 µM, coculture fibroblast: H6076	0.916	0.972	0.937	0.9296	0.8856	0.886	0.854	0.841	0.885
1 µM, coculture fibroblast: H6231	0.814	0.936	0.873	0.874	0.83843	0.8252	0.77	0.755	0.755
1 µM, coculture fibroblast: HADF	0.865	0.848	0.8017	0.8058	0.7659	0.763	0.726	0.727	0.692
1 µM, coculture fibroblast: HCFa	0.846	0.842	0.813	0.806	0.743	0.751	0.713	0.697	0.653
1 µM, coculture fibroblast: HCPF	0.845	0.929	0.8781	0.87483	0.826	0.802	0.76	0.75	0.743
1 µM, coculture fibroblast: HHSteC	0.8734	0.8492	0.82705	0.8142	0.77388	0.781	0.74	0.722	0.683
1 µM, coculture fibroblast: HMF	0.8269	0.973	0.919	0.899	0.85	0.841	0.801	0.795	0.784
1 µM, coculture fibroblast: HPFa	0.899	0.907	0.898	0.8666	0.84	0.859	0.814	0.809	0.756
1 µM, coculture fibroblast: HUF	0.87583	0.852	0.824	0.778	0.741	0.726	0.689	0.679	0.666
1 µM, coculture fibroblast: Hs5	0.9729	0.9455	0.919	0.894	0.828	0.807	0.777	0.749	0.774
1 µM, coculture fibroblast: Hs27A	0.82	0.8085	0.7566	0.7738	0.7252	0.736	0.7115	0.7	0.677
1 µM, coculture fibroblast: Hs343T	0.866	0.964	0.9078	0.883	0.8257	0.807	0.754	0.753	0.742
1 µM, coculture fibroblast: WS1	0.8642	0.807	0.775	0.724	0.689	0.663	0.649	0.639	0.632
